# The list shows a part of the results, in another mix than the full data. The data scatter; read single values as rough.
# By UniProt entry, the sequences of proteins in these tests, tags left out. Where a name states a change or a piece, a line headed by the entry shows the natural chain unless it says otherwise.
# UniProt Q9BSJ2, whole entry: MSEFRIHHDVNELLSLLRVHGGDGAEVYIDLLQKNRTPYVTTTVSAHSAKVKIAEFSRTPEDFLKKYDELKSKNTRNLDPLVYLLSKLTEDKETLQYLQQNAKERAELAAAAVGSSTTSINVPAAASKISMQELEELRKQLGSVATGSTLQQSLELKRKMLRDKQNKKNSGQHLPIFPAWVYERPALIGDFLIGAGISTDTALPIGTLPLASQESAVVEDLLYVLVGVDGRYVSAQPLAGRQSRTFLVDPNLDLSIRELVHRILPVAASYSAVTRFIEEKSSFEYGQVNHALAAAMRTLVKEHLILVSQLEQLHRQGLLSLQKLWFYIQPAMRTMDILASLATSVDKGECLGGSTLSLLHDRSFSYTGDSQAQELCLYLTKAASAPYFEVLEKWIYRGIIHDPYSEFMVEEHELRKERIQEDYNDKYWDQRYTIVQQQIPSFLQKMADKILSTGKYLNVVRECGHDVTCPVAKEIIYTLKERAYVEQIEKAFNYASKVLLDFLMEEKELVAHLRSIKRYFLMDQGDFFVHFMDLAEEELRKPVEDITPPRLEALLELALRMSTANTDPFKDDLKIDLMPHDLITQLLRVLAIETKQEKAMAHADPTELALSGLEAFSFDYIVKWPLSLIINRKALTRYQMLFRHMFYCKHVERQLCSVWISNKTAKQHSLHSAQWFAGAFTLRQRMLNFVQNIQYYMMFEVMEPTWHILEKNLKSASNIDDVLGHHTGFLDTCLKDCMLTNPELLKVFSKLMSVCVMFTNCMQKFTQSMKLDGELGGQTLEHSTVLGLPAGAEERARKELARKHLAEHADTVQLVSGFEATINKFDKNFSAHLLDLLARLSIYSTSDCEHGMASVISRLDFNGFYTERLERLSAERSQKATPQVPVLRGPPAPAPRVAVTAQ
# UniProt Q9BW92: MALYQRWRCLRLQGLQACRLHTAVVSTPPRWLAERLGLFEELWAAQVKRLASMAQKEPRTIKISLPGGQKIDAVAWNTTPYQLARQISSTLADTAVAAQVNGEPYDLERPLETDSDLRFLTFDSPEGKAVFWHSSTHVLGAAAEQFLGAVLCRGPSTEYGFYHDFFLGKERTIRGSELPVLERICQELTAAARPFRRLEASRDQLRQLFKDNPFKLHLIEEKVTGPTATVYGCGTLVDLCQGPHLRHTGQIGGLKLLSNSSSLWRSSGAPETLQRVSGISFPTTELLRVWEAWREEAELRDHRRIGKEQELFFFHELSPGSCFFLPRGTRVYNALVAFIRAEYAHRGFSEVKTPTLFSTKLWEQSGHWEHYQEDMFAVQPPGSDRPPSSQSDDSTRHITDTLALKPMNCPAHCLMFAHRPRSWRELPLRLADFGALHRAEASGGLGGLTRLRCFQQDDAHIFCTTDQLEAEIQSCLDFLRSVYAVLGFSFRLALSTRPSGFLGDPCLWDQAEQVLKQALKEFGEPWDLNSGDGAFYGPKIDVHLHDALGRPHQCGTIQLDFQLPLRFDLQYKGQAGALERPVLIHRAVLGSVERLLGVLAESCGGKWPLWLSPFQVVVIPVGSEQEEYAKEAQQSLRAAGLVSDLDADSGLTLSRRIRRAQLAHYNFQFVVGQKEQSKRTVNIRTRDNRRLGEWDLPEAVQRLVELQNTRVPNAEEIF
# UniProt Q9BTA9: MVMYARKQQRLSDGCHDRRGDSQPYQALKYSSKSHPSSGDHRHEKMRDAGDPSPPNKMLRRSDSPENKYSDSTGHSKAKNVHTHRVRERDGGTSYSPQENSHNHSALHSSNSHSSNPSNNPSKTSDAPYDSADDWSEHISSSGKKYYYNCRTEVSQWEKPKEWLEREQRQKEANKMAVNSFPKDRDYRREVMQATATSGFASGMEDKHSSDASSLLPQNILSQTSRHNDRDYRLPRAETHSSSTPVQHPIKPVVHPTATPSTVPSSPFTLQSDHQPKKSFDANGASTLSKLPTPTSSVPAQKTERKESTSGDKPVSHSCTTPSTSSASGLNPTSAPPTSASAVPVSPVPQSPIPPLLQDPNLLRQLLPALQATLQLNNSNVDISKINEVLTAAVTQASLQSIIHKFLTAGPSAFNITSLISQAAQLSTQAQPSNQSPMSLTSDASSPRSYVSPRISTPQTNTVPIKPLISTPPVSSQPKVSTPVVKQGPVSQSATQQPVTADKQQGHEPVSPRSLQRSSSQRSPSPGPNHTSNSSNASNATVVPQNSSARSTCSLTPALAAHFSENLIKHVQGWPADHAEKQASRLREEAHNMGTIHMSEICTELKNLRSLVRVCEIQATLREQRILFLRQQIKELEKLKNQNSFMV
# UniProt Q9BY44: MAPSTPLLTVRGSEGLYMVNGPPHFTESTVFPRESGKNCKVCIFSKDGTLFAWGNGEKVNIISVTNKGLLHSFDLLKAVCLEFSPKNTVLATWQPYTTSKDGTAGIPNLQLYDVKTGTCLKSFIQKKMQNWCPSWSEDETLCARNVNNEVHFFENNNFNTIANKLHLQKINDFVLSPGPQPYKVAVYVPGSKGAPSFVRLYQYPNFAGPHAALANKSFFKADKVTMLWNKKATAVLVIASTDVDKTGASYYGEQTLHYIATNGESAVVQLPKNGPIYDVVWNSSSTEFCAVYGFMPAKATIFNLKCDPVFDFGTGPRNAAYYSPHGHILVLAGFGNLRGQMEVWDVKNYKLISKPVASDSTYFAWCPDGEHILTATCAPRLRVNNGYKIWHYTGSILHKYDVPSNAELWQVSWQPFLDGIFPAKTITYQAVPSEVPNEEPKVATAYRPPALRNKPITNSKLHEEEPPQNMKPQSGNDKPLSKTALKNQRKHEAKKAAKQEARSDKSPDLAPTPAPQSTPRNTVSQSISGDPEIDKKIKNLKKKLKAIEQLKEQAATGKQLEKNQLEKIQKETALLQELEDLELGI
# UniProt Q9BUJ2: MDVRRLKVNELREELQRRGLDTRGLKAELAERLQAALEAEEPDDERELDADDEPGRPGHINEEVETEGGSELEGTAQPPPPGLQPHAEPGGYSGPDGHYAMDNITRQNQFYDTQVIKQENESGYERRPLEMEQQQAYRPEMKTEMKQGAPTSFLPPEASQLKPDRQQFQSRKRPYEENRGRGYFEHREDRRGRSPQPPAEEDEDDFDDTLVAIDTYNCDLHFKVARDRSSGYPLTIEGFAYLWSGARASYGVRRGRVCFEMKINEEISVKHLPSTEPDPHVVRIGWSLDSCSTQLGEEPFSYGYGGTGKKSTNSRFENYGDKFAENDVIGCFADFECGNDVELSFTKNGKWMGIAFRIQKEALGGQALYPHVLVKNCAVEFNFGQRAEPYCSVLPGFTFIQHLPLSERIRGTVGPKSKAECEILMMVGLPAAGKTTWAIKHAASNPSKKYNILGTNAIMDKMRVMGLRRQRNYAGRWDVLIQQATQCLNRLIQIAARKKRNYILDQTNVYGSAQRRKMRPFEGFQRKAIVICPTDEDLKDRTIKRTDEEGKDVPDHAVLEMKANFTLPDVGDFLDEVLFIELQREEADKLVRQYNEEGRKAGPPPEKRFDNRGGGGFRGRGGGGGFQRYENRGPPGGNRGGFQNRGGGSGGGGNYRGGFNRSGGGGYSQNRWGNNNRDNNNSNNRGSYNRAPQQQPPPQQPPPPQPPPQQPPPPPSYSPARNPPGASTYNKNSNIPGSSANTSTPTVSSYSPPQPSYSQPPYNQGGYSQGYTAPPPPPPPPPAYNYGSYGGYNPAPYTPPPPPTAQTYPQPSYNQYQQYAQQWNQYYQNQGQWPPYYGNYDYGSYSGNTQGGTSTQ
# UniProt Q9BZV1: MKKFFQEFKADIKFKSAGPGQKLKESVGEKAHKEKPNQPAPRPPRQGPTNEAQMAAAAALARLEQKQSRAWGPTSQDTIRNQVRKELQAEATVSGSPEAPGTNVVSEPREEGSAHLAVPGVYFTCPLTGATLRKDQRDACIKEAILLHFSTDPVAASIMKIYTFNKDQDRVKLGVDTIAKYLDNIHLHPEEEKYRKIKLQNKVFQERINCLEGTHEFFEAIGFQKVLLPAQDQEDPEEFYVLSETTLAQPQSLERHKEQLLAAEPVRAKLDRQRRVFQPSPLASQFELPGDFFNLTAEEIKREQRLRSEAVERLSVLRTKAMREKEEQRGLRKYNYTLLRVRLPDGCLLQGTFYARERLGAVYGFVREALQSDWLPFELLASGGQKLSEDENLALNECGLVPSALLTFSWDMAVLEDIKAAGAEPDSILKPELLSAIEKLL
# UniProt Q9BW19: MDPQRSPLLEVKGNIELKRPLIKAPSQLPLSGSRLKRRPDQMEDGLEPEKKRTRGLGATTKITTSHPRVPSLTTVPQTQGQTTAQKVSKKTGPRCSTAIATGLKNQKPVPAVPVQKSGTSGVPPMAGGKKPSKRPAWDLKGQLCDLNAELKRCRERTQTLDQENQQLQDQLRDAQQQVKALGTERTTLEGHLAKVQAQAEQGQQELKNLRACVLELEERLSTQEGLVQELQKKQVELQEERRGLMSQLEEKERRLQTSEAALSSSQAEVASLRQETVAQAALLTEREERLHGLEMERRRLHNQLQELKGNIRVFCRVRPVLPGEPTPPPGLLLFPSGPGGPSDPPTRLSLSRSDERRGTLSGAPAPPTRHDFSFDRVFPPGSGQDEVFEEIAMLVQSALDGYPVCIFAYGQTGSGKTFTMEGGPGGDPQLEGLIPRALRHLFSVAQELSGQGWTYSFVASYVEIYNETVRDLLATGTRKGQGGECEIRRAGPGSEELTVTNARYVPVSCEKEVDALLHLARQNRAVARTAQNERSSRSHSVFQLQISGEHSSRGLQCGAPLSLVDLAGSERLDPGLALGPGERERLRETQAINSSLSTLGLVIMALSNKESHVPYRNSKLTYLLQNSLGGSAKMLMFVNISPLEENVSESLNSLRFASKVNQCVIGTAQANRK
# UniProt Q9BW27: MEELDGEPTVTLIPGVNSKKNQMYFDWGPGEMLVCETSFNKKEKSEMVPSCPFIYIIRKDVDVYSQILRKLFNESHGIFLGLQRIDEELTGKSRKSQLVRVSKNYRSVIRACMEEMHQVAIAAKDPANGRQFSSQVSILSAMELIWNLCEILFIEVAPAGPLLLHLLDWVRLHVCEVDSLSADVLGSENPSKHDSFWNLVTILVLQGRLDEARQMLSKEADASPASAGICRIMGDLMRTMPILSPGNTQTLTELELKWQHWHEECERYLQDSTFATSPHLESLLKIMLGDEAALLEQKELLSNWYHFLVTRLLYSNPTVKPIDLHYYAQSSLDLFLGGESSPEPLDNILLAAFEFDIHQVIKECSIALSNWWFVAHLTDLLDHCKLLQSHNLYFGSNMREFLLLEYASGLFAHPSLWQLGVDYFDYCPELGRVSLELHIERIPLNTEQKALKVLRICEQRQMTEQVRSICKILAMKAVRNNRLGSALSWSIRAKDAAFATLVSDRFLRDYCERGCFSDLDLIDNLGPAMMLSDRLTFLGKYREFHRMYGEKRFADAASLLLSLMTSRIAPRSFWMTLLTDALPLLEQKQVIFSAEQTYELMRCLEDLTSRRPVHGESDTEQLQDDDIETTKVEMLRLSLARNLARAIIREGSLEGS
# UniProt Q9BXW7: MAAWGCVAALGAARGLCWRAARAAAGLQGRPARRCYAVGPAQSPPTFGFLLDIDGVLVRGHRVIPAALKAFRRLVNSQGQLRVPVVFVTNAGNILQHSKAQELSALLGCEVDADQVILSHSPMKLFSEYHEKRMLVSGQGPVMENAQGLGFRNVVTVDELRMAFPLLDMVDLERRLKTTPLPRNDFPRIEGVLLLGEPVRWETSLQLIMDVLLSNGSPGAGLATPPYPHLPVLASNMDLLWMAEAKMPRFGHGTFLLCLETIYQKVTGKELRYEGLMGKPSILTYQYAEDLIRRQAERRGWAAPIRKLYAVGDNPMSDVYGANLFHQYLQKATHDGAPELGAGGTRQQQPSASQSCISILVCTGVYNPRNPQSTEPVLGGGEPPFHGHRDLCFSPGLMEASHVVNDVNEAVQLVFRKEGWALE
# UniProt Q9C0B1, whole entry, looked up: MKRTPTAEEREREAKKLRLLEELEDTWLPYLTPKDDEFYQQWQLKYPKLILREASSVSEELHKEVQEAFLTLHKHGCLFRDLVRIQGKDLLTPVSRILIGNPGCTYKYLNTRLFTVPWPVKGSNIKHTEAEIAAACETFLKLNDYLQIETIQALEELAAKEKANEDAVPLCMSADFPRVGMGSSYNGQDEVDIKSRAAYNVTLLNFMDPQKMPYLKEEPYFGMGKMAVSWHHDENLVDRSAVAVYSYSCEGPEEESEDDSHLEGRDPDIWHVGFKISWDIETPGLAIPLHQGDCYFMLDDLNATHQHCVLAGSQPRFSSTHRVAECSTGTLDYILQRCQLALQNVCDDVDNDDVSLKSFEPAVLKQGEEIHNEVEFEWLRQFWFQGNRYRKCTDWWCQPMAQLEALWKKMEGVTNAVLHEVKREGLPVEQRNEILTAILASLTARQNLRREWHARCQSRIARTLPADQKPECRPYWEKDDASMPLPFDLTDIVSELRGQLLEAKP
# Compound: COC(=O)/C=C/c1ccccc1 [methyl cinnamate]
# Assay: log2 ratio of iodoacetamide-alkyne labeling of the cysteine site, DMSO over compound (competition); higher = stronger covalent engagement of the cysteine by the compound, active = 1 or more
# Settings: 500 µM; treatment time 1 h; system: HEK293T cell lysate
# In short: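 HEK293T lysate (2 mg/mL) was incubated with electrophile (500 µM) or vehicle for 1 h at ambient temperature and then with iodoacetamide alkyne for 1 h. Labelled proteins were clicked to sCIP-TMT reagents, pooled, digested, enriched on streptavidin and measured by Orbitrap Eclipse LC-MS/MS with FAIMS, with FragPipe quantification. The per-cysteine log2 competition ratio is mean control-channel reporter intensity over mean compound-channel reporter intensity. Across three replicates with duplicate channels, cysteines quantified in only one replicate were excluded.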
row,Target,log2 ratio of iodoacetamide-alkyne labeling
1,TUBGCP2 C350 (UniProt Q9BSJ2),inactive: -0.203
2,TARS2 C322 (UniProt Q9BW92),inactive: 0.0776
3,WAC C553 (UniProt Q9BTA9),inactive: 0.434
4,EIF2A C306 (UniProt Q9BY44),inactive: 0.243
5,HNRNPUL1 C291 (UniProt Q9BUJ2),inactive: 0.103
6,UBXN6 C125 (UniProt Q9BZV1),inactive: 0.155
7,ACAT2 C65 (UniProt Q9BWD1),inactive: -0.087
8,GPATCH1 C534 (UniProt Q9BRR8),inactive: -0.00611
9,KIFC1 C557 (UniProt Q9BW19),inactive: -0.164
10,NUP85 C515 (UniProt Q9BW27),inactive: -0.0126
11,ACAT2 C148 (UniProt Q9BWD1),inactive: 0.0878
12,UniProt Q9H1B7_C504,inactive: 0.307
13,UniProt Q9BXW7_C392,inactive: -0.113
14,TBCD C773 (UniProt Q9BTW9),inactive: -0.03
15,FTO C326 (UniProt Q9C0B1),inactive: -0.0329

# Copied from above, entries 4–5
row,Target,log2 ratio of iodoacetamide-alkyne labeling
4,EIF2A C306 (UniProt Q9BY44),inactive: 0.243
5,HNRNPUL1 C291 (UniProt Q9BUJ2),inactive: 0.103

# Source: the supplement of paper PMC11006884
